In assay [1] the target is T1, GFP-B’α (Arabidopsis PP2A B’α subunit) (Arabidopsis thaliana) (UniProt O04375).
T1 sequence: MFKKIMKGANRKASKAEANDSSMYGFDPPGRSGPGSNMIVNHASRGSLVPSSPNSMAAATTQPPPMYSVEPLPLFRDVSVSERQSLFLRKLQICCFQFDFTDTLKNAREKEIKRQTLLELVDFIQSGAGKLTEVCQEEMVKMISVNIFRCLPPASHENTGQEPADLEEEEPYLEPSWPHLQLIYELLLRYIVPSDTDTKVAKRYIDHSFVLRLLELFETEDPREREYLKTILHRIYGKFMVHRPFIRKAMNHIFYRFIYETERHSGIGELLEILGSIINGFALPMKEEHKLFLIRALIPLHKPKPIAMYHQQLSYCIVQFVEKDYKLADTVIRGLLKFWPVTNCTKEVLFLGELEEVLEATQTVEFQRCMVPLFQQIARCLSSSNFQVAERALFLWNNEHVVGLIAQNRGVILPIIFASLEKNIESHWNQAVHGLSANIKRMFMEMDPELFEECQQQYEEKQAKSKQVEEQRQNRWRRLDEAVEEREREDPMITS
The assay can be described thus: co-IP; GFP-IP: GFP fusions pulled down with anti-GFP polyclonal antibody and protein A-agarose from lysates of N. benthamiana leaves; co-precipitated AvrE1-HA fragments or HA-RIN4 detected with anti-HA, His-HopM1 (induced with Dex, 6 h) with anti-His; lysis buffer 50 mM Tris-HCl pH 7.5, 150 mM NaCl, 1% Nonidet P40, 0.5% sodium deoxycholate, 5 mM DTT; 4°C.

The target in assay [2] is T2, GFP-B’β (Arabidopsis PP2A B’β subunit) (Arabidopsis thaliana) (UniProt O04376).
T2 sequence: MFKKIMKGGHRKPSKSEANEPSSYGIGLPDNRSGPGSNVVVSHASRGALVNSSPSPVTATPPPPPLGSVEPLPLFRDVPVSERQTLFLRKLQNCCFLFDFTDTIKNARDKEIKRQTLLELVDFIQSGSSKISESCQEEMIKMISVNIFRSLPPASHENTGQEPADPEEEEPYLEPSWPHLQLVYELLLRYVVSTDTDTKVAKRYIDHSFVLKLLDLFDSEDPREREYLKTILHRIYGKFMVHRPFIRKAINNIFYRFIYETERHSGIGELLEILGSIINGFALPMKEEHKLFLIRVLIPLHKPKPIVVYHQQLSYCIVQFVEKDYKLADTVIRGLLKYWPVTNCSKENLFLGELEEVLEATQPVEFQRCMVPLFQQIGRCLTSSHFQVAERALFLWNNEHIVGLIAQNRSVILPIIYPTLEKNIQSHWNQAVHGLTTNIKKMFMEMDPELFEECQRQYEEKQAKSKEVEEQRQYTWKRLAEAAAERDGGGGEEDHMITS
The assay is described as above.

For assay [3], the target named is T3, GFP-B’ξ (Arabidopsis PP2A B’ξ subunit) (Arabidopsis thaliana) (UniProt Q9SV41).
T3 sequence: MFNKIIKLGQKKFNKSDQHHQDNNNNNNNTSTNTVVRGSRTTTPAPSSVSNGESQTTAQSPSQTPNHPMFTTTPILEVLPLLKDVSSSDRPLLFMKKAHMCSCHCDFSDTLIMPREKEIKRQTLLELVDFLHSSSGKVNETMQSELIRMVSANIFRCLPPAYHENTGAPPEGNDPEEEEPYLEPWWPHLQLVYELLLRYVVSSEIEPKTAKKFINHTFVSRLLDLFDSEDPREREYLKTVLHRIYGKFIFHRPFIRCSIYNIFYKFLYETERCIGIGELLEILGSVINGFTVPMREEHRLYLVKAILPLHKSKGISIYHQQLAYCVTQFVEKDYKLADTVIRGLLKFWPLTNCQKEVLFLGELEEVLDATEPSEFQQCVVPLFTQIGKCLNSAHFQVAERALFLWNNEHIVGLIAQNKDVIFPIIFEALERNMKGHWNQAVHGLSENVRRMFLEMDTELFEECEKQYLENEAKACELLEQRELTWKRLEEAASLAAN
Described as above.

The target in assay [4] is T1, GFP-B’α (Arabidopsis PP2A B’α subunit) (Arabidopsis thaliana). In words: co-IP; AvrE1-C’ wild type and k1k2 mutant with PP2A B’ subunits co-expressed in N. benthamiana (S4B Fig); which partner was pulled down is not told.
Assay [5] concerns the target T2, GFP-B’β (Arabidopsis PP2A B’β subunit) (Arabidopsis thaliana). The description is as above.
Assay [6] deals with T4, GFP-B’η (Arabidopsis PP2A B’η subunit) (Arabidopsis thaliana) (UniProt Q9LU89).
T4 sequence: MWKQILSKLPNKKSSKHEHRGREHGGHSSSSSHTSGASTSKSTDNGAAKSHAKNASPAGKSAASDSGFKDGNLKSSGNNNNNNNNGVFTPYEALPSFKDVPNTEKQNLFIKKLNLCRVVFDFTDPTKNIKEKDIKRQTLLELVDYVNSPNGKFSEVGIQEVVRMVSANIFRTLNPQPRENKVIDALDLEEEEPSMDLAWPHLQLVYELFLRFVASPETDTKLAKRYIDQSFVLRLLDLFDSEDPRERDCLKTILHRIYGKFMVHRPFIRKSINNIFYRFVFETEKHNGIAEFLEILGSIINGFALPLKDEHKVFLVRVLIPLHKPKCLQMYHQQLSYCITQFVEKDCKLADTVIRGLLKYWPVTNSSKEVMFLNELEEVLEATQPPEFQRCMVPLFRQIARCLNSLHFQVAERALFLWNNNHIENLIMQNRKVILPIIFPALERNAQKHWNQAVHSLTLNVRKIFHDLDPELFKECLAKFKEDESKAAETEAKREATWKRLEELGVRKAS
The assay can be described thus: co-IP; GFP-IP: GFP fusions pulled down with anti-GFP polyclonal antibody and protein A-agarose from lysates of N. benthamiana leaves; co-precipitated AvrE1-HA fragments or HA-RIN4 detected with anti-HA, His-HopM1 (induced with Dex, 6 h) with anti-His; lysis buffer 50 mM Tris-HCl pH 7.5, 150 mM NaCl, 1% Nonidet P40, 0.5% sodium deoxycholate, 5 mM DTT; 4°C.

No constants are given. Whether binding was seen depends on the method and setting. Binding seen in cells or lysates may run through a third protein. For part of these data: A result given as binding can be weak or reduced; the word gives no strength. Tags and fused reporters may be left off the sequences shown.

Turning to “AvrE1-N’-HA (aa 1–898) (Pseudomonas syringae pv. tomato DC3000) (domain or fragment)”, the binding result in assay [1], in assay [2] and in assay [3] was “binds” in each case.

Turning to “AvrE1-C’-HA (aa 889–1795) (Pseudomonas syringae pv. tomato DC3000) (domain or fragment)”, the binding entry was “binds” in assay [4]; “binds” in assay [5]; “binds” in assay [1]; “binds” in assay [2]; “no binding” in assay [6]; “binds” in assay [3].

(Values after article PMC4871590.)
